Experimental data: patent US20140004201A1, “Treatment of Vascular Diseases Using Encapsulated Cells Encoding and Secreting GLP-1, or a Fragment or Variant Thereof” (Biocompatibles UK Ltd., priority 2010, published 2014)

Tested on: hTERT-MSC cells
Assay: Expression level of active GLP in stably transfected hTERT-MSC cell clones
Assay type: cell-based, human
Details: stably expressing hTERT-MSC cell clones

| Substance | active GLP per 10^6 cells and hour [pmol] |
| --- | --- |
| GLP-1(7-37) [construct #103] | 0.4 |
| GLP1(7-37)-IP2-GLP1(7-37) [construct #217] | 2.7 |
| GLP-1(7-37)-IP2-extended with 11 AA [construct #317] | 0.6 |
